From the supplement of paper PMC12819154, “High-throughput peptide-centric local stability assay extends protein–ligand identification to membrane proteins, tissues and bacteria” (Nature Structural & Molecular Biology, 2025) come the findings set out here.

Protein sequences, listed by entry. Tags and fused reporters are not part of them. Lines headed by an entry give the natural chain unless they say otherwise; changes in a name come on top.
UniProt Q9H8W3: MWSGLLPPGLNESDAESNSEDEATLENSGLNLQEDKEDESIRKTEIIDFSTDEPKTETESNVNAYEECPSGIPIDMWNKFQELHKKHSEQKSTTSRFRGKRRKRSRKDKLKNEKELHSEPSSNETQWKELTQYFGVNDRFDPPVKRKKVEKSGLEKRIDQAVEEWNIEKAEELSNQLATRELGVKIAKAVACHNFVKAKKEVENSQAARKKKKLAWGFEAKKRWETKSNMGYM
UniProt Q9NPE2: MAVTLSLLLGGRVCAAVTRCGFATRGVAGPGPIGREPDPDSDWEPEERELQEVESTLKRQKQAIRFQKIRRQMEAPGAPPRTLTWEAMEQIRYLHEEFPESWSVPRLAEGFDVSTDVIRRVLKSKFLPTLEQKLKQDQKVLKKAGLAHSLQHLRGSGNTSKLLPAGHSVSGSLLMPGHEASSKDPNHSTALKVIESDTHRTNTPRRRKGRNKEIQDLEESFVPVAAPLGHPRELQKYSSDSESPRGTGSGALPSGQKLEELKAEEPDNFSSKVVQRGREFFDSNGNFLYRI
UniProt Q9HCU5: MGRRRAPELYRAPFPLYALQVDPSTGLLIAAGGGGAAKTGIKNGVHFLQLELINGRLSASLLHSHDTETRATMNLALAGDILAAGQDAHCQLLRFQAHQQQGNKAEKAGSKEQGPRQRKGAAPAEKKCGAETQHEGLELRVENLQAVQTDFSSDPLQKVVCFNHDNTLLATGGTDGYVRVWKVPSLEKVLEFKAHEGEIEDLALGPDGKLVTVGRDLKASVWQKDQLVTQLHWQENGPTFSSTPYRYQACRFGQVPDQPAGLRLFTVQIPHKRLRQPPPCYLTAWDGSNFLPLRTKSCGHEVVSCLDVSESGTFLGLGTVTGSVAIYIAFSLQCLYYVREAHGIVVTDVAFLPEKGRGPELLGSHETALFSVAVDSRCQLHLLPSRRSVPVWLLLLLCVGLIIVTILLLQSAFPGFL
UniProt Q9NP71: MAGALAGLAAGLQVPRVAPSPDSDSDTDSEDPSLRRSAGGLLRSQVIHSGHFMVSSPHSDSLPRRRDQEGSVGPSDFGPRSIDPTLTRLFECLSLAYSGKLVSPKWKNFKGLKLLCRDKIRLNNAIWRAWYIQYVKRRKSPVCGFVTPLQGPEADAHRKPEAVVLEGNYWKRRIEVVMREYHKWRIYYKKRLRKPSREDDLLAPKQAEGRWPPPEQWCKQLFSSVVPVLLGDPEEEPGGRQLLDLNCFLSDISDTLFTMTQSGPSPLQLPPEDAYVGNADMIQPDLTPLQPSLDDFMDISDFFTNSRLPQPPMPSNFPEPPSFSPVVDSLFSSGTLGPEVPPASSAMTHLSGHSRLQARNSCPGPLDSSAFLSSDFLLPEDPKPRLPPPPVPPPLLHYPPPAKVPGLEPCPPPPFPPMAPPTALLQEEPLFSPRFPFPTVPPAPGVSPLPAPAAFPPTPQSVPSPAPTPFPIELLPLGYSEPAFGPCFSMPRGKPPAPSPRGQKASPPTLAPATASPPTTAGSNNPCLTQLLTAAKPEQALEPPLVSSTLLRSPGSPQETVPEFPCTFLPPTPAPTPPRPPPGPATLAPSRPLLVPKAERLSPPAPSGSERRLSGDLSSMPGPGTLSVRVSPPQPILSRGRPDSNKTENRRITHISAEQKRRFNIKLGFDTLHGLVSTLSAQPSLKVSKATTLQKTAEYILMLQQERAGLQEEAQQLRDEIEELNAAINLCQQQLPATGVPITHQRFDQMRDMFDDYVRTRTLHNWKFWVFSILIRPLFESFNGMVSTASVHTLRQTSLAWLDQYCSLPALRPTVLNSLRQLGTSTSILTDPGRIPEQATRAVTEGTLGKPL
UniProt Q9H845: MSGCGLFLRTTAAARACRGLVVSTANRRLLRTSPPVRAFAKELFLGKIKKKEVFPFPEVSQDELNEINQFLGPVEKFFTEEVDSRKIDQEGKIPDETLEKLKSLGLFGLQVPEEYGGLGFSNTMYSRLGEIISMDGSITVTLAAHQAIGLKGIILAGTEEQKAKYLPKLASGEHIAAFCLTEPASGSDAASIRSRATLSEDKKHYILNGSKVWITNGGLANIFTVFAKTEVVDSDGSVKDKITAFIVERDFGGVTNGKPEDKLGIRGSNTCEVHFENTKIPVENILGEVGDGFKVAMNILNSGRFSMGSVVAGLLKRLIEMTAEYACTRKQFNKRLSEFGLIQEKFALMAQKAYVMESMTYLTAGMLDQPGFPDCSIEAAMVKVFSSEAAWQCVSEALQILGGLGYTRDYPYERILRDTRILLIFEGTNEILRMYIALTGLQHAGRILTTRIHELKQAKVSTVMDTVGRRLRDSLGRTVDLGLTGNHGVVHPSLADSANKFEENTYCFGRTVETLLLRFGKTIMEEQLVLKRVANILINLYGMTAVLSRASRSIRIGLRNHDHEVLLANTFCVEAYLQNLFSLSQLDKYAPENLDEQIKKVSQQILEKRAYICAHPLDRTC
UniProt Q9NQ89: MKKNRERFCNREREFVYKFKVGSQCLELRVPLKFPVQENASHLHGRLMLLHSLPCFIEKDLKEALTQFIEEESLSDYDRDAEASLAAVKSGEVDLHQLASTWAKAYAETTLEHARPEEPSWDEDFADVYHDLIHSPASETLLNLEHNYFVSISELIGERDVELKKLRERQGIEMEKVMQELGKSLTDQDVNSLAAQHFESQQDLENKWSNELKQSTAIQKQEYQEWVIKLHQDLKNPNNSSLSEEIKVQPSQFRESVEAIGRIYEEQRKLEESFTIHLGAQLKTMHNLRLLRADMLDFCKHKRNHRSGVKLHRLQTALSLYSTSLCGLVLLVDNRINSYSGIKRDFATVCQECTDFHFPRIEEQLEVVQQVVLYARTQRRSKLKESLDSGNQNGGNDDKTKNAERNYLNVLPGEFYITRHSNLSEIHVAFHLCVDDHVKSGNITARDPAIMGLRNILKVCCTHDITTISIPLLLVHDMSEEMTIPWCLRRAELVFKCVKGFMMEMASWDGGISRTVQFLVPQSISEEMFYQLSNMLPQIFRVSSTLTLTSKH
UniProt Q9HA92: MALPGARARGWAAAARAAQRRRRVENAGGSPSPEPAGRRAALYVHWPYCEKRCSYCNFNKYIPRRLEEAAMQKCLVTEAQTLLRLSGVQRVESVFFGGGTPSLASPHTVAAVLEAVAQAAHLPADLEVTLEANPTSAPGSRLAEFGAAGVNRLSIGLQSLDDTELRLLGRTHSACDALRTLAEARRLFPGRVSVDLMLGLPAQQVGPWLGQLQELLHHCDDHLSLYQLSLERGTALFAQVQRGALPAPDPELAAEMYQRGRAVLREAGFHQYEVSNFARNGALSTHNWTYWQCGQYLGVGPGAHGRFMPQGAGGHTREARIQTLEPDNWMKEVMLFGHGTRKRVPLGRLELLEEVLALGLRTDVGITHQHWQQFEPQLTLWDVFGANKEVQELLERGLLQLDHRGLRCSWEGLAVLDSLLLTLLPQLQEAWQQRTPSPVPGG
UniProt Q9H4P4: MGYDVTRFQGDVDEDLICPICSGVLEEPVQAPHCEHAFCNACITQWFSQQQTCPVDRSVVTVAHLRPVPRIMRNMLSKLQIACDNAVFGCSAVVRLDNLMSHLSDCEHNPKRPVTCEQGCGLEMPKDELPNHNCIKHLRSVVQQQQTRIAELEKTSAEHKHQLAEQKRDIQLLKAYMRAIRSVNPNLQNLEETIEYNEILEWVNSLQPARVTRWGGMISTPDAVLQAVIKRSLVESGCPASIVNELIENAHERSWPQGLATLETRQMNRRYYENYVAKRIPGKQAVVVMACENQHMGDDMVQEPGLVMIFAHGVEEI
UniProt Q9NPQ8: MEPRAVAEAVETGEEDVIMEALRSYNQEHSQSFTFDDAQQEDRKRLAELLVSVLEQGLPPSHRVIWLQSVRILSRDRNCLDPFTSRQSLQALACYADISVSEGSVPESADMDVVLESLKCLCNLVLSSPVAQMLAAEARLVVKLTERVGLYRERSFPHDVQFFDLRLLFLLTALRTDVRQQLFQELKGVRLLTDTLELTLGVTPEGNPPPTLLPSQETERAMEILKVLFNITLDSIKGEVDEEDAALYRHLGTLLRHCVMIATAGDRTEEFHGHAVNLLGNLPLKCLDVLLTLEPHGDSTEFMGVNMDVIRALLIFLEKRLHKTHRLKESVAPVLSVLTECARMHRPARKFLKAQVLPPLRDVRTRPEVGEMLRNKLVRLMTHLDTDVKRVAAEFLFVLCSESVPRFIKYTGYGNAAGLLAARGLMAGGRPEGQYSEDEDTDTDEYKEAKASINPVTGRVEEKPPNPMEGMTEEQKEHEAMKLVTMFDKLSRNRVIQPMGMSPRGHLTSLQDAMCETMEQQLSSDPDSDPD
UniProt Q9H8H0: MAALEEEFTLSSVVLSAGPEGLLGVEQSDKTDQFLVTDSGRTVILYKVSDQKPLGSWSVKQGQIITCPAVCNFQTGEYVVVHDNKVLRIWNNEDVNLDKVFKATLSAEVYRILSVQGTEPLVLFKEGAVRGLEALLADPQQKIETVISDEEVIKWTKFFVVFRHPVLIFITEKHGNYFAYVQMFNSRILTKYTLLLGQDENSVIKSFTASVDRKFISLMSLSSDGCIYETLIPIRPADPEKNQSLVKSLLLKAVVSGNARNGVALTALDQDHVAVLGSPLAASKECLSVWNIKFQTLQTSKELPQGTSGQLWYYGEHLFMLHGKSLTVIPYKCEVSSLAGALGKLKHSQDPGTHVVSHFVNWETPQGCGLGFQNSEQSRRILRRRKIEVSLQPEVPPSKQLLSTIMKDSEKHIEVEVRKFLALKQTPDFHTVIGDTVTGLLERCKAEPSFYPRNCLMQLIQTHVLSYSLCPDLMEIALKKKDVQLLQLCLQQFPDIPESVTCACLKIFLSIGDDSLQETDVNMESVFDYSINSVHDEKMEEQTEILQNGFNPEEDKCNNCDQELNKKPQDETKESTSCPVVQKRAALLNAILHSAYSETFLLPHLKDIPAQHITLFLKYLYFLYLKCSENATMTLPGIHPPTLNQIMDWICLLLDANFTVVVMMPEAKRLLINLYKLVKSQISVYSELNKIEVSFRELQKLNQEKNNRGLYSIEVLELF
UniProt Q9H8M2, whole entry: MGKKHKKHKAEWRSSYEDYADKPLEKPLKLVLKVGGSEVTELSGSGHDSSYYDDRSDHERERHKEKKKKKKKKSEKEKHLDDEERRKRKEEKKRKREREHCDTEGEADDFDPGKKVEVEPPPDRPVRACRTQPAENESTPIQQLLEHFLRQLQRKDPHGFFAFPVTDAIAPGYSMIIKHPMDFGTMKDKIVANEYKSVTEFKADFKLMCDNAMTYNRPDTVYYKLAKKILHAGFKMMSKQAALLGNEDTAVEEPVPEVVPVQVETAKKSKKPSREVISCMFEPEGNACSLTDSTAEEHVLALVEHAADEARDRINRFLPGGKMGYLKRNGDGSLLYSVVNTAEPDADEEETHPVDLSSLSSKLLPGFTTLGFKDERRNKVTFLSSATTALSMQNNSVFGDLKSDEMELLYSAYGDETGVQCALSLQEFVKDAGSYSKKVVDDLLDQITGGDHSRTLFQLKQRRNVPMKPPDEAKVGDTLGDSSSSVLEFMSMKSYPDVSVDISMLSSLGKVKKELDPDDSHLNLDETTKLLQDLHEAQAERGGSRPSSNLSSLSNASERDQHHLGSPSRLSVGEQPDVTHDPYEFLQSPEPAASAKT
UniProt Q9H9R9: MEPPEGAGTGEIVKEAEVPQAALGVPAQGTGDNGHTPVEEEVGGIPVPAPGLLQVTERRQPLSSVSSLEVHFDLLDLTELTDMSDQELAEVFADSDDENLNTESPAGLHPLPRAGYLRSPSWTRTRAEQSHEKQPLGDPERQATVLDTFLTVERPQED

This is one part of the list. Small differences around the control level are noise.

Compound in the assay: CN[C@@H]1C[C@H]2O[C@@](C)([C@@H]1OC)n1c3ccccc3c3c4c(c5c6ccccc6n2c5c31)C(=O)NC4 [staurosporine]
Put plainly: log2 fold change of tryptic peptide abundance, ligand vs vehicle (limited proteolysis) (log2 ratio); higher = more trypsin-susceptible (destabilized). The settings on record: ligand concentration: 20 uM; sample: K562 cleared lysate; digestion: 4 min, 22 C (HT-PELSA RT4min, Orbitrap Astral).
Take “SCAF1 (peptide sequence: IGDRDPIPLPVPSLLPR, peptide start residue: 134) (UniProt Q9H7N4)”: the log2 fold change was -0.37.

In the case of “UniProt Q9H8W3 (peptide sequence: AVACHNFVK, peptide start residue: 189)”, the log2 fold change was -0.438.

Consider “NGRN (peptide sequence: GREFFDSNGNFLYRI, peptide start residue: 277) (UniProt Q9NPE2)”, for which the log2 fold change was -0.259.

“PREB (peptide sequence: FGQVPDQPAGLR, peptide start residue: 252) (UniProt Q9HCU5)”: the log2 fold change is -0.106.

Take “MLXIPL (peptide sequence: WPPPEQWCK, peptide start residue: 211) (UniProt Q9NP71)”: the log2 fold change was -0.552.

For the target “ACAD9 (peptide sequence: VSTVMDTVGR, peptide start residue: 460) (UniProt Q9H845)”, the log2 fold change is -0.205.

As to “C12orf4 (peptide sequence: ESLDSGNQNGGNDDKTK, peptide start residue: 385) (UniProt Q9NQ89)”, the log2 fold change is -0.205.

With “MRPL44 (peptide sequence: NLVDFLTGEEVVCHVAR, peptide start residue: 155) (UniProt Q9H9J2)”, the log2 fold change turned out to be 0.315.

Turning to “RSAD1 (peptide sequence: LAEFGAAGVNR, peptide start residue: 142) (UniProt Q9HA92)”, the log2 fold change was -0.531.

For “RNF41 (peptide sequence: SVVQQQQTR, peptide start residue: 140) (UniProt Q9H4P4)”, the log2 fold change came out at 0.0466.

For the target “EHMT1 (peptide sequence: KLPAPGADVK, peptide start residue: 190) (UniProt Q9H9B1)”, the log2 fold change came out at 0.237.

Consider “UBN1 (peptide sequence: NFTPPSPFANK, peptide start residue: 816) (UniProt Q9NPG3)”, for which the log2 fold change amounted to 0.176.

In the case of “RIC8A (peptide sequence: LLFLLTALR, peptide start residue: 167) (UniProt Q9NPQ8)”, the log2 fold change is -0.212.

With “NOL11 (peptide sequence: HIEVEVR, peptide start residue: 412) (UniProt Q9H8H0)”, the log2 fold change was -0.227.

For “BRD9 (peptide sequence: HLDDEERR, peptide start residue: 79) (UniProt Q9H8M2)”, the log2 fold change amounted to 0.659.

Take “DBNDD1 (peptide sequence: TRAEQSHEKQPLGDPER, peptide start residue: 125) (UniProt Q9H9R9)”: the log2 fold change was determined as 0.24.
